Test results published in paper doi:10.1101/413948.
No constants are given. Whether binding was seen depends on the method and setting. Binding seen in cells or lysates may run through a third protein. Some results given as binding are weak or reduced against the parent protein; the word gives no strength.

How the values were obtained:
[1] = target: T1, ATG9A (human (endogenous in HUVEC)) (UniProt Q7Z3C6); experiment: co-IP
T1 sequence: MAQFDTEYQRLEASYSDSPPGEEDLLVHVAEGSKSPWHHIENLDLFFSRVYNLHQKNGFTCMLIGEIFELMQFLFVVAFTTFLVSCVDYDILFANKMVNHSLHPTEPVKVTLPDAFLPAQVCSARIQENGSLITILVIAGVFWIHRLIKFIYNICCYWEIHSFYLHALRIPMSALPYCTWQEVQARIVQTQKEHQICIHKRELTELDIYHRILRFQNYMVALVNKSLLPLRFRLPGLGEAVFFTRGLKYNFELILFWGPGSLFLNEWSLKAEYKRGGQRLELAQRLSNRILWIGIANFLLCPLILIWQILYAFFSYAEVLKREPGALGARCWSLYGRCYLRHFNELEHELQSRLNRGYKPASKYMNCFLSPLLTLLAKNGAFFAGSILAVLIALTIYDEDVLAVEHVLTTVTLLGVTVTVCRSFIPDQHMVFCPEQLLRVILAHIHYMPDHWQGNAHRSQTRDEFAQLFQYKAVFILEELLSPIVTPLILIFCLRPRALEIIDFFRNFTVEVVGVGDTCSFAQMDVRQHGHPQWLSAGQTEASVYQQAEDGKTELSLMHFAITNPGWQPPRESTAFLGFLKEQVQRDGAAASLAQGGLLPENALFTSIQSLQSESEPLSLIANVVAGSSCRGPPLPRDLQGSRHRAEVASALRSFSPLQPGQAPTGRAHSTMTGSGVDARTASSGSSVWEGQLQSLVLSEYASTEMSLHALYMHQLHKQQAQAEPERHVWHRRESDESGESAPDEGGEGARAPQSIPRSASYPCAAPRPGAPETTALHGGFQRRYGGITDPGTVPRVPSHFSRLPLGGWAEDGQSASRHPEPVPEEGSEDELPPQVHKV

[2] = target: p62, also referred to as sequestosome 1 (SQSTM1) (human (endogenous in HUVEC)) (UniProt Q13501); experiment: co-IP

binding [1]: binds | binding [2]: no binding
B1: hyaluronan synthase 2 (enzyme, UniProt Q92819 1-552)
chain: MHCERFLCILRIIGTTLFGVSLLLGITAAYIVGYQFIQTDNYYFSFGLYGAFLASHLIIQSLFAFLEHRKMKKSLETPIKLNKTVALCIAAYQEDPDYLRKCLQSVKRLTYPGIKVVMVIDGNSEDDLYMMDIFSEVMGRDKSATYIWKNNFHEKGPGETDESHKESSQHVTQLVLSNKSICIMQKWGGKREVMYTAFRALGRSVDYVQVCDSDTMLDPASSVEMVKVLEEDPMVGGVGGDVQILNKYDSWISFLSSVRYWMAFNIERACQSYFGCVQCISGPLGMYRNSLLHEFVEDWYNQEFMGNQCSFGDDRHLTNRVLSLGYATKYTARSKCLTETPIEYLRWLNQQTRWSKSYFREWLYNAMWFHKHHLWMTYEAIITGFFPFFLIATVIQLFYRGKIWNILLFLLTVQLVGLIKSSFASCLRGNIVMVFMSLYSVLYMSSLLPAKMFAIATINKAGWGTSGRKTIVVNFIGLIPVSVWFTILLGGVIFTIYKESKRPFSESKQTVLIVGTLLYACYWVMLLTLYVVLINKCGRRKKGQQYDMVLDV
